The source of these data is publication PMC4678819.

The exact form of at least one protein or probe is not confirmed. At least one verdict rests on a figure or table, not on a statement of the authors.

The subject of the data set is EcoPI. Nature of the data set: stopped-flow tryptophan fluorescence. The conditions noted are these: 250 nM EcoPI, 1 uM DNA, association without ATP, dissociation with 4 mM ATP and 500 uM heparin; Buffer R+: 50 mM Tris-HCl pH 8.0, 50 mM KCl, 10 mM MgCl2, 1 mM DTT, 100 ug/ml BSA, 25 C; recombinant protein.

Consider “TGGCTTAGACCACCGCAGATACCAAAACTGTCCTTCTATTGACAATTCG (double strand) [6/38_PI (6/38_EcoPI)]”, for which the binding result is on record as “binds”.
